PubChem BioAssay AID744 (University of Pittsburgh Molecular Library Screening Center, 2007)
Inconclusive results, whose numbers are uncertain, are shown with a selection of clear calls. The source made the active and inactive calls.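 Rule for the calls: active = inhibition at or above 50% in each of two repeat confirmation tests; inconclusive = one repeat below 50% inhibition, the other above; inactive = both repeats at or below 50% inhibition.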

Amino acid sequences for entries named in this document (tags omitted).
UniProt P53350, whole entry, looked up: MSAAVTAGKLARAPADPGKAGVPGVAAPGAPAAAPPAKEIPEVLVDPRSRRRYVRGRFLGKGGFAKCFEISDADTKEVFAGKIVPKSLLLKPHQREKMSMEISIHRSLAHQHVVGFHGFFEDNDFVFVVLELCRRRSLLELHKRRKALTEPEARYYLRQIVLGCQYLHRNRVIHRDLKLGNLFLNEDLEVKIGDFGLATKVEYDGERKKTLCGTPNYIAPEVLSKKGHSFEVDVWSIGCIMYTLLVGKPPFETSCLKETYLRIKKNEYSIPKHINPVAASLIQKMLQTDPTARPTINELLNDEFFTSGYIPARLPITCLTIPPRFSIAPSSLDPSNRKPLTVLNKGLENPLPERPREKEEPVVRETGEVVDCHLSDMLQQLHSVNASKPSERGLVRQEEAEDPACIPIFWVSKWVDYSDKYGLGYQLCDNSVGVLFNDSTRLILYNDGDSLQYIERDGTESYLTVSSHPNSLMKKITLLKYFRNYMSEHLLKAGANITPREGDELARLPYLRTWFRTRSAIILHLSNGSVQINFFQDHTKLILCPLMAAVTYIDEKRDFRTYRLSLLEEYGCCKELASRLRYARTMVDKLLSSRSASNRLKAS

The compounds below were run against Serine/threonine-protein kinase PLK1 (Homo sapiens) (UniProt P53350) (assay: PLK1 kinase activity inhibitors, confirmation, biochemical, TR-FRET, duplicate runs (AID 744;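 note: 0% = DMSO max control and 100% = H-89 kinase-blocked min control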)). Conditions: recombinant PLK1 kinase, TR-FRET peptide phosphorylation; at 10 µM; hits give high values.

Structure (SMILES) | inhibition
CCn1c(SCC(=O)N2CCOCC2)nc(O)cc1=O | inactive: -15.4%
O=C(CCC(=O)c1ccc(Cl)cc1)OCC(=O)c1ccccc1 | inactive: -2.27%
CC(C)Cc1nc2n[nH]c(N)c2c2c1COC(C)(C)C2 | inconclusive: 46.3%
COCCn1c(C)cc(C(=O)CSc2nnc3ccccn23)c1C | inactive: -9.03%
NS(=O)(=O)c1ccc(Nc2nc(-c3ccc(O)cc3O)cs2)cc1 | inconclusive: 51.2%
NC(=O)c1ccc(C(F)(F)F)n(Cc2cccc(Cl)c2)c1=O | active: 62.1%
